No constants are given. Whether binding was seen depends on the method and setting. In cells and extracts the contact can be indirect. Some binding calls cover weakened binding; strength is not graded here.
Key:
[1] = target: PARP1 wild type as used in the Co-IP with NUDT16 (Supplemental Figure S7I) (UniProt P09874); assay: co-IP; Co-IP of PARP1 constructs with NUDT16 (Supplemental Figure S7G, S7I); tags, cells and bait not given
MBP-PARP1 fusion protein = MBP-PARP1 fusion protein (UniProt P09874); assay: pull-down; MBP-PARP1 fusion protein on beads (amylose resin), incubated with lysates of HEK293T cells expressing SFB-NUDT16 (WT or DDEEE5A); cells untreated, IR 20 Gy, or PARPi (20 μM olaparib, 3 h) before IR; only the target purified
[2] = target: SFB-tagged CtIP (CtBP-interacting protein), wild type (UniProt Q99708); assay: co-IP; HEK293T transfected with SFB-CtIP and Myc-NUDT16; streptavidin beads; NTEN buffer (20 mM Tris-HCl pH 8.0, 100 mM NaCl, 1 mM EDTA, 0.5% Nonidet P-40), 3 h at 4°C; western blot
[3] = target: NUDT16, endogenous (human (endogenous in HEK293T, MCF10A and U2OS)) (UniProt Q96DE0); assay: co-IP; endogenous proteins, MCF10A lysate; IP with NUDT16 antibody or PARP1 antibody; cells untreated or IR 20 Gy, 1 h (interaction reduced); extracts with Benzonase nuclease (not affected)
[4] = target: CtIP, endogenous (human (endogenous in HEK293T and U2OS)) (UniProt Q99708); assay: proximity ligation; in situ PLA (Duolink) in fixed U2OS cells with NUDT16 and CtIP antibodies; endogenous proteins
[5] = target: PARP1, endogenous (human (endogenous in MCF10A, U2OS and HEK293T)) (UniProt P09874); assay: co-IP; endogenous proteins, MCF10A lysate; IP with NUDT16 antibody or PARP1 antibody; cells untreated or IR 20 Gy, 1 h (interaction reduced); extracts with Benzonase nuclease (not affected)
[6] = target: CtIP, endogenous (human (endogenous in HEK293T and U2OS)) (UniProt Q99708); assay: co-IP; endogenous proteins, HEK293T lysate; IP with NUDT16 antibody or CtIP antibody, blot for the other
[7] = target: PARP1, endogenous (human (endogenous in MCF10A, U2OS and HEK293T)) (UniProt P09874); assay: proximity ligation; in situ PLA (Duolink) in fixed U2OS cells with NUDT16 and PARP1 antibodies; untreated or IR 10 Gy (reduced at 1 and 4 h, similar to untreated at 8 and 24 h)
[8] = target: CtIP, endogenous (human (endogenous in HEK293T and U2OS)) (UniProt Q99708); assay: proximity ligation; in situ PLA in U2OS cells transfected with WT or mutant NUDT16, or with a CtIP RSS3A mutant (Supplemental Figure S4H-K)
[9] = target: PARP1 as used in the pulldown with NUDT16 deletion mutants (Supplemental Figure S7K) (UniProt P09874); assay: pull-down; pulldown of NUDT16 deletion mutants and PARP1 (Supplemental Figure S7K); which partner was immobilised is not given

The chains behind the UniProt entries cited, without tags or fusion partners. Where a name states a change or a piece, a line headed by the entry shows the natural chain unless it says otherwise.
UniProt P09874: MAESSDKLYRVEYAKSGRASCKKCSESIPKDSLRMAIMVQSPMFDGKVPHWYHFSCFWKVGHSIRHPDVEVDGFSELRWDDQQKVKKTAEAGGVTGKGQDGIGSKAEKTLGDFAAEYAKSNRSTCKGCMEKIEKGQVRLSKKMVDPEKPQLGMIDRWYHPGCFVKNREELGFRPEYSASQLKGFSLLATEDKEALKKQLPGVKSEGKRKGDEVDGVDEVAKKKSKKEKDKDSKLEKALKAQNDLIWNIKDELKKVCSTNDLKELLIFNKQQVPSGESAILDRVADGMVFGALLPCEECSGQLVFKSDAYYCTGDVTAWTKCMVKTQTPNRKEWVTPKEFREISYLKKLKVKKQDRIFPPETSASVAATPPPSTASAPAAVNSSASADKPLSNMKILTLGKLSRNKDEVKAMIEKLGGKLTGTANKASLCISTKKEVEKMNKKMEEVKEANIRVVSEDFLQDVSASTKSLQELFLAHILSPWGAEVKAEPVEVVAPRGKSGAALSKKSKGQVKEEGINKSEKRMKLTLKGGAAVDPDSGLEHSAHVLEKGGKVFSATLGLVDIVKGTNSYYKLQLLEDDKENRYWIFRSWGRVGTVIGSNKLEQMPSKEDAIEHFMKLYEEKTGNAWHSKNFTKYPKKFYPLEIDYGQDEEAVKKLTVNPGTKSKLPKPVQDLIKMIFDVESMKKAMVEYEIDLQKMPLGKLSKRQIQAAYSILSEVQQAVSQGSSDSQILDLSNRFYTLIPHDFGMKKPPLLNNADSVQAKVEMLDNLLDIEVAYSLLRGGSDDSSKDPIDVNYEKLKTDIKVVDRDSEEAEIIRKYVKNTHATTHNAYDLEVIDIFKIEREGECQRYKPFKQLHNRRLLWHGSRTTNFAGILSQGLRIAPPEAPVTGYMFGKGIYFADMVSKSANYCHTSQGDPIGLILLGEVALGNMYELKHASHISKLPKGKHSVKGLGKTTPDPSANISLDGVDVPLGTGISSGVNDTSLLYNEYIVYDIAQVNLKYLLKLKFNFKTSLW
UniProt Q99708: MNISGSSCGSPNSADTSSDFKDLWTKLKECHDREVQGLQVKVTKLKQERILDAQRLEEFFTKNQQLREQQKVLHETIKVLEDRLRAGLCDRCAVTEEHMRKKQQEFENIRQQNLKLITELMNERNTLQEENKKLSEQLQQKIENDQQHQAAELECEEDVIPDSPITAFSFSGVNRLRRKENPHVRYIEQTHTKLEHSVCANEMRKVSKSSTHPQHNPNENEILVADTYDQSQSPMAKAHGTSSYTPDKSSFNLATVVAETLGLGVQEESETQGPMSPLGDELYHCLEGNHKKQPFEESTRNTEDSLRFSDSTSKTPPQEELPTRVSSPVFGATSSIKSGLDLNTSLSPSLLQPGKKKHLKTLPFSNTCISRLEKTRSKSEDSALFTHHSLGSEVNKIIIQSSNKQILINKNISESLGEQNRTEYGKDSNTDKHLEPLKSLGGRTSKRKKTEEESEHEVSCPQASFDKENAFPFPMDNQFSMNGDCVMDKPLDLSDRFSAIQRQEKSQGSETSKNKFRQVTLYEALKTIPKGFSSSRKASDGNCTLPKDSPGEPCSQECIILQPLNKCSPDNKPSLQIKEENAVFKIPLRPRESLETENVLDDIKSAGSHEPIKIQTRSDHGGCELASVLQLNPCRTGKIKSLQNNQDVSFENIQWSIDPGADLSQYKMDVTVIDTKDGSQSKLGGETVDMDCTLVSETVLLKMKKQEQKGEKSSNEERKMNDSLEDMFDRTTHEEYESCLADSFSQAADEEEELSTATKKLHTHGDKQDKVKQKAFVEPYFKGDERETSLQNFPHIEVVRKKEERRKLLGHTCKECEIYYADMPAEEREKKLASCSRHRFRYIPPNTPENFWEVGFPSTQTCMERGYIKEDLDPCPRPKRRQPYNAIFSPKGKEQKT
UniProt Q96DE0: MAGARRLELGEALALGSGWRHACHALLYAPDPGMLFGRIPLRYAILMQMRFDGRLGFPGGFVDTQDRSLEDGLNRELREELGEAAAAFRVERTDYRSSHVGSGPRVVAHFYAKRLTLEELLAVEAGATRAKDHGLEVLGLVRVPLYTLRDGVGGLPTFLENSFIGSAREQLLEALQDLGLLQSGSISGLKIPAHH

“NUDT16 as used in the Co-IP with PARP1 constructs (Supplemental Figure S7G, S7I) (from UniProt Q96DE0 1-195)” was tested, and the binding [1] was “binds”.

In the case of “SFB-tagged NUDT16, wild type (from UniProt Q96DE0 1-195)”, the binding (MBP-PARP1 fusion protein) is reported as “binds”.

In the case of “Myc-tagged NUDT16 (from UniProt Q96DE0 1-195)”, the binding [2] is reported as “binds”.

In the case of “PARP1, endogenous (from UniProt P09874 1-1014)”, the binding [3] is reported as “binds”.

In the case of “NUDT16, endogenous (from UniProt Q96DE0 1-195)”, the binding [4] is reported as “binds”, the binding [5] is reported as “binds” and the binding [6] is reported as “binds”. The binding [7] was “binds”.

With “WT NUDT16 transfected into U2OS cells for the PLA (from UniProt Q96DE0 1-195)” the binding [8] was “binds”.

For “NUDT16 wild type as used in the pulldown with PARP1 (Supplemental Figure S7K) (from UniProt Q96DE0 1-195)”, the binding [9] was “binds”.

Source: paper PMC11039996
